Assay results: the supplement of paper PMC10849652
The list shows a part of the results.

Chains of the proteins cited; added tags and fusions are not shown. Lines headed by an entry give the natural chain unless they say otherwise; changes in a name come on top.
UniProt Q8NFY9: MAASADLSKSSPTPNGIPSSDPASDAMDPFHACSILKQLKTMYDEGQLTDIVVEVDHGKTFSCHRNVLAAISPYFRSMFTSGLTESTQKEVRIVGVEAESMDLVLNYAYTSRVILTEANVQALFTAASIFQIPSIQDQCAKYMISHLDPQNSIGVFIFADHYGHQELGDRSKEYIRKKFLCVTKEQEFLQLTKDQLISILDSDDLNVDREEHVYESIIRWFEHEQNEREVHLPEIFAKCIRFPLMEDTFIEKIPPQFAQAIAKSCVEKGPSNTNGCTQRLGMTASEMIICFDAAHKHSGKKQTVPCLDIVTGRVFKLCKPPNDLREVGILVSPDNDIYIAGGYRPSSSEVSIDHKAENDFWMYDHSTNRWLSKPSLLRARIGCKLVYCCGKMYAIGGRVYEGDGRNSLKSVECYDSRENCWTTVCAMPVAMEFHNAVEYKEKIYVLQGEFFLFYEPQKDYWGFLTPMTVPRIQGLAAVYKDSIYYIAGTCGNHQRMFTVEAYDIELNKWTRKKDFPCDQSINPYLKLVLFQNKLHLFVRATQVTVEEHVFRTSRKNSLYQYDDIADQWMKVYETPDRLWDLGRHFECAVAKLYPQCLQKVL
UniProt P51617, whole entry, looked up: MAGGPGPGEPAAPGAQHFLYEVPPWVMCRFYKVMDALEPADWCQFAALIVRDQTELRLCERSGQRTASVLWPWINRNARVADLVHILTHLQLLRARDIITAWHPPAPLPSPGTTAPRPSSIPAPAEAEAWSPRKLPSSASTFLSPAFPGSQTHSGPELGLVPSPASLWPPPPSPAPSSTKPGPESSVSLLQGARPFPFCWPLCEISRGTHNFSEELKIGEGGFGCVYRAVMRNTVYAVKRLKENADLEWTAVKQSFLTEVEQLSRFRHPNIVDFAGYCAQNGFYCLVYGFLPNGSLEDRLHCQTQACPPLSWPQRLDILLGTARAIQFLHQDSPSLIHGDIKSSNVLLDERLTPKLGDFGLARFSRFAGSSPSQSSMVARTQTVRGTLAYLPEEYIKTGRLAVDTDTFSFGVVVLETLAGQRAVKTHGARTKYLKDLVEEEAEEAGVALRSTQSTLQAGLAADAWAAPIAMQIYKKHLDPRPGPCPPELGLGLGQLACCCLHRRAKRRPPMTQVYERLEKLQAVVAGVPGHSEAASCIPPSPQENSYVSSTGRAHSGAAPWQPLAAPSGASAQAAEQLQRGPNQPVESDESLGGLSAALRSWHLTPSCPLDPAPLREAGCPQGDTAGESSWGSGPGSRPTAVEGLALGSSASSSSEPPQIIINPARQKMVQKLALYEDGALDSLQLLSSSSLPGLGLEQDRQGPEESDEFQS
UniProt Q9NVH2, whole entry, looked up: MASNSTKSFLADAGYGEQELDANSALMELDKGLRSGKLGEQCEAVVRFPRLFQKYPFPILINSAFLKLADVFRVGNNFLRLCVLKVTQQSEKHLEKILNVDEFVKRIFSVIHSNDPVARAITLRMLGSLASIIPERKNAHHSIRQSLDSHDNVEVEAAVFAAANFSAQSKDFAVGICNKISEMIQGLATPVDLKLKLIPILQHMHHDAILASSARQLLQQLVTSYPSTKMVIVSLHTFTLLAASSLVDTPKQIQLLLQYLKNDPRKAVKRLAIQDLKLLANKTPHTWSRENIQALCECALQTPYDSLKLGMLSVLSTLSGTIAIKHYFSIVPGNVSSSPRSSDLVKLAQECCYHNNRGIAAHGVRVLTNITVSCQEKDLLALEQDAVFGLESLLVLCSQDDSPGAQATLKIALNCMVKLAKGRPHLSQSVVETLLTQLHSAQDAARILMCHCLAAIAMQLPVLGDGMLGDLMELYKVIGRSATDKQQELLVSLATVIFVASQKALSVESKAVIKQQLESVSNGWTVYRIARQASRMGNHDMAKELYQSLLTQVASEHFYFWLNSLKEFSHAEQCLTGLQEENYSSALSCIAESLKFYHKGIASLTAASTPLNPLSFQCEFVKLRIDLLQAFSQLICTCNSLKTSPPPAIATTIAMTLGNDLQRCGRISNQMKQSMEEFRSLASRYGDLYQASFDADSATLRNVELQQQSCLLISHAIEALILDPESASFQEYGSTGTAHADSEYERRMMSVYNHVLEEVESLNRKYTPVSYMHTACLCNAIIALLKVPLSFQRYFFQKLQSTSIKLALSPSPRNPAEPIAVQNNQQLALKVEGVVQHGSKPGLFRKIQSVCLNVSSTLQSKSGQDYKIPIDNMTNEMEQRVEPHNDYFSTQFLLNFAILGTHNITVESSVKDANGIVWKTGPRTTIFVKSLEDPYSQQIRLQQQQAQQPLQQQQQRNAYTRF
UniProt Q8IY47: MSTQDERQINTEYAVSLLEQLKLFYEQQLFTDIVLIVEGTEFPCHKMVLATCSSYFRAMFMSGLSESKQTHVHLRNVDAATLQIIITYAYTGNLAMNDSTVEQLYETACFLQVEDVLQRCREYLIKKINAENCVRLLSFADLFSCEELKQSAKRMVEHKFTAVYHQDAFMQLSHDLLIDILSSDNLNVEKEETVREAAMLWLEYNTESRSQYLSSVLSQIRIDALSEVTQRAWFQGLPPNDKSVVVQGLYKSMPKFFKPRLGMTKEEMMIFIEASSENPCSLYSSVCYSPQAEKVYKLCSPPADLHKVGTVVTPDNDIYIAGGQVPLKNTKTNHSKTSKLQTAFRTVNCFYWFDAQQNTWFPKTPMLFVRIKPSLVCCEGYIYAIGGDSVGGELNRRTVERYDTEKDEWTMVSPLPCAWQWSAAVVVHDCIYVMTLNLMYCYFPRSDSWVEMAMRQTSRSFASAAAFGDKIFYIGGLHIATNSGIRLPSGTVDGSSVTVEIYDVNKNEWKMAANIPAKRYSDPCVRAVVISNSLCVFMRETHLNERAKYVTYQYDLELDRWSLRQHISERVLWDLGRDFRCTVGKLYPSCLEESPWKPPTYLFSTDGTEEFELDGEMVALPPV
UniProt Q9Y6Y0: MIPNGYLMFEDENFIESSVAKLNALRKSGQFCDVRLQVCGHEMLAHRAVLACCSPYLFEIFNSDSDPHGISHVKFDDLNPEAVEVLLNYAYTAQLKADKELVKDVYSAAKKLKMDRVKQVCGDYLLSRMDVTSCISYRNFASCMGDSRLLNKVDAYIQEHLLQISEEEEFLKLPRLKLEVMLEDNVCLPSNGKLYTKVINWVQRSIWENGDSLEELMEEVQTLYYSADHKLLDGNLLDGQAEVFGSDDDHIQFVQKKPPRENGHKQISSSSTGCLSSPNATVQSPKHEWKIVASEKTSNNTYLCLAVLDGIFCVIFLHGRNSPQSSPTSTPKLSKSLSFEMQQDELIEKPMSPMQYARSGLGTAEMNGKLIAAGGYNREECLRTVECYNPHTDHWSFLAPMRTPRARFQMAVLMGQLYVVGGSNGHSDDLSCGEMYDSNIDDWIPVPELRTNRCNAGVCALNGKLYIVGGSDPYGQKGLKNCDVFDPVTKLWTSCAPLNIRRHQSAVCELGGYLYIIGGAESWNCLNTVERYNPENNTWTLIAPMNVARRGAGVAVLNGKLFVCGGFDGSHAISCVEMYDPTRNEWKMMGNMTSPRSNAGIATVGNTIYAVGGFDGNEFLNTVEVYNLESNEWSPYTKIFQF
UniProt Q9H1K1: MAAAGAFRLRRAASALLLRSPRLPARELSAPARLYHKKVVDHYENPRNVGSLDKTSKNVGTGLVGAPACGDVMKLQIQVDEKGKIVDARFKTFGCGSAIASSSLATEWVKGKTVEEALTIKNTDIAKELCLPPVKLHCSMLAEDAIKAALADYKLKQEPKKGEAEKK
UniProt Q7Z5Y7: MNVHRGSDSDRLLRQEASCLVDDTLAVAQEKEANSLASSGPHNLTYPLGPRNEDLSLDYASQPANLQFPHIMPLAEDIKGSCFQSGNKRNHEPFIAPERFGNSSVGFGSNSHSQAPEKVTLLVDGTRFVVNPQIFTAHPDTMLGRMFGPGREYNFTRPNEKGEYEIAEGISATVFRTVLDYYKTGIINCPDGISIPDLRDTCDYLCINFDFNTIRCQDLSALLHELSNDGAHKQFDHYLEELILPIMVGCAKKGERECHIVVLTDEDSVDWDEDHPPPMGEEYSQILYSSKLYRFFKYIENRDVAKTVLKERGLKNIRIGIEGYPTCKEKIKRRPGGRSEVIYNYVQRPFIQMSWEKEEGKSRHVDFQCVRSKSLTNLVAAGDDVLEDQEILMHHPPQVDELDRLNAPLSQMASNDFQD
UniProt P08514, whole entry, looked up: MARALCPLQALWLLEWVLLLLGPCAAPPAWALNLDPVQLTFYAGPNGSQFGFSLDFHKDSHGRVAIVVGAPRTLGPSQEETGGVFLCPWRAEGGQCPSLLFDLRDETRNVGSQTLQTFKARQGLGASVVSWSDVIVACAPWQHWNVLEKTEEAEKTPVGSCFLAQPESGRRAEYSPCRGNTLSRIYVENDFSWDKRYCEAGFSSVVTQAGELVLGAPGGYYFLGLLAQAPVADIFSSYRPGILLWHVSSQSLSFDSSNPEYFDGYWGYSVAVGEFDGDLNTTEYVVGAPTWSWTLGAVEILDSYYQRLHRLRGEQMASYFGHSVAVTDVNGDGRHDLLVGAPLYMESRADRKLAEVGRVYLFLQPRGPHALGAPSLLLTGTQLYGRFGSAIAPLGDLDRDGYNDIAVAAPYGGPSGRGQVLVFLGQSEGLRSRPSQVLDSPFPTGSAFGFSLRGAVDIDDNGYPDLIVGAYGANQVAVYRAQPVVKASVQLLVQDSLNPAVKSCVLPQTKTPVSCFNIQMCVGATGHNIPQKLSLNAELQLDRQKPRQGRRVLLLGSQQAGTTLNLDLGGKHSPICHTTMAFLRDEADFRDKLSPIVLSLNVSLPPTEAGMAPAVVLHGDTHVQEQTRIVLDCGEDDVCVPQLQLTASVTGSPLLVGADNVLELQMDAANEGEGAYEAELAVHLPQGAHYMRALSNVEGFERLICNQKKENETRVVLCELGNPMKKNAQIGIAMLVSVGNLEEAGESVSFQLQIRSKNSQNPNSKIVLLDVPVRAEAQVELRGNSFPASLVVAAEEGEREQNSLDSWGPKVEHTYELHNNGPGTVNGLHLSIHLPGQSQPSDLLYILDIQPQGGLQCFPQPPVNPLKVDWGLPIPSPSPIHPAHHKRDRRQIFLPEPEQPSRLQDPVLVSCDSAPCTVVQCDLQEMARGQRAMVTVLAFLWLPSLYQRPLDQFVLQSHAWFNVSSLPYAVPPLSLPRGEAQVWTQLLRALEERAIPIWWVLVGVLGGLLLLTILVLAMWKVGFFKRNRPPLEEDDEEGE
UniProt Q9Y4C1: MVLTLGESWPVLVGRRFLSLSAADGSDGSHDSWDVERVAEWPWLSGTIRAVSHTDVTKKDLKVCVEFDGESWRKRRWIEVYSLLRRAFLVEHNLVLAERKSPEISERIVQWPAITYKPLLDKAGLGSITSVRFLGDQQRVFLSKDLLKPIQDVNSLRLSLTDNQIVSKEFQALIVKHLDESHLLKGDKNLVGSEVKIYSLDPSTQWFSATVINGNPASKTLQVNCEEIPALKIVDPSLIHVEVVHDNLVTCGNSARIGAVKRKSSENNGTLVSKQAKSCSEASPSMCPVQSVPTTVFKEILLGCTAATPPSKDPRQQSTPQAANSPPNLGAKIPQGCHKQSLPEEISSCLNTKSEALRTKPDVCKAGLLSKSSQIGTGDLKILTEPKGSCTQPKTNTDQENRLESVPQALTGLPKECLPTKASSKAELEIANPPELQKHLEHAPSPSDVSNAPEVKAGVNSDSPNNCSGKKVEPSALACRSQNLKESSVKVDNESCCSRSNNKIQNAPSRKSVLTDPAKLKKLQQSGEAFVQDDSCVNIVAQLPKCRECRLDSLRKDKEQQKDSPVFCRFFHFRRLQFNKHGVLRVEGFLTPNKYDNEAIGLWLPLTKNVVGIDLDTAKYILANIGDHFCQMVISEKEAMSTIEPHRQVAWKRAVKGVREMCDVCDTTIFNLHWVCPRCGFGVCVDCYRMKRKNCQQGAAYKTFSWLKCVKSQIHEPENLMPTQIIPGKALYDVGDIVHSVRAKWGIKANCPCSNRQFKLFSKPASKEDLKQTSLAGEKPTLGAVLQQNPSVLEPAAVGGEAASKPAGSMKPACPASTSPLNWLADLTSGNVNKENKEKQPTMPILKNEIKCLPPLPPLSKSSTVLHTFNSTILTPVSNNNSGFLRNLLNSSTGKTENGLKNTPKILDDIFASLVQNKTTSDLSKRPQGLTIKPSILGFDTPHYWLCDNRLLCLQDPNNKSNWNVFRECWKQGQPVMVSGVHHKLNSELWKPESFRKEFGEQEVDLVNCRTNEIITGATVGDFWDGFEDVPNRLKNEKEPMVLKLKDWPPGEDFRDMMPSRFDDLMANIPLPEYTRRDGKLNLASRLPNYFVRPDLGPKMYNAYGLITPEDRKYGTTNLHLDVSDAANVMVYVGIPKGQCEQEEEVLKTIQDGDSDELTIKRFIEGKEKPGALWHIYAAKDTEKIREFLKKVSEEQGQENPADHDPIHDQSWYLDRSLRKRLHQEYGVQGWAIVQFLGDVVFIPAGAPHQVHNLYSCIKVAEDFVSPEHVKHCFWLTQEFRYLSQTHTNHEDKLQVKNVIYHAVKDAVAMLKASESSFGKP

Columns and labels:
Test in all cases: log2 fold change, soluble protein after heating vs DMSO (PISA); higher = thermal stabilisation; K562 lysate, 10 uM; active = over 0.2 and 3.5 SD of the protein, either way, in both replicates (recomputed)
[1] = compound: CCCS(=O)(=O)Nc1ccc(F)c(C(=O)c2c[nH]c3ncc(-c4ccc(Cl)cc4)cc23)c1F [vemurafenib]
In short: (§1)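 Following dounce homogenisation of K562 pellets in PBS pH 7.4 with 1 mM MgCl2, crude extract at 1 mg/mL protein was incubated for 30 min with 10 μM compound. Aliquots were then heated for 3 min over 48°C-58°C and pooled, NP-40 was added to 0.5% at 4°C, and soluble protein was recovered as the supernatant at 21,000xg for 90 min. Channel-sum-equalised TMTpro 16plex LC-MS/MS quantified this protein. Each value, from duplicates, is a log-two fold change in thermal stability relative to solvent controls.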

[2] = compound: CCCS(=O)(=O)Nc1ccc(F)c(C(=O)c2c[nH]c3ncc(Cl)cc23)c1F
In short: as §1

[3] = compound: CCN(CCCOc1ccc2c(Nc3cc(CC(=O)Nc4cccc(F)c4)[nH]n3)ncnc2c1)CCOP(=O)(O)O [barasertib]
In short: as §1

[4] = compound: CC[C@@H]1C(=O)N(C)c2cnc(Nc3ccc(C(=O)NC4CCN(C)CC4)cc3OC)nc2N1C1CCCC1
In short: as §1

[5] = compound: CC[C@@H]1C(=O)N(C)c2cnc(Nc3ccc(C(=O)N[C@H]4CC[C@H](N5CCN(CC6CC6)CC5)CC4)cc3OC)nc2N1C(C)C [volasertib]
In short: as §1

[6] = compound: CCn1c(C(=O)N(C2CC2)C2CC2)cc2c3c(ncn3C)c(Nc3cc(C)n(C)n3)nc21
In short: as §1

[7] = compound: CCn1cc(-c2ccnc3[nH]c(-c4cccc(CN(C)C)c4)cc23)c(-c2ccc(NC(=O)N(C)C)cc2)n1
In short: as §1

[8] = compound: CN1CCC(CNc2ccc3ncc(-c4cccc(OC(F)(F)F)c4)n3n2)CC1
In short: as §1

[9] = compound: CN1CCN(CCOc2cc(OC3CCOCC3)c3c(Nc4c(Cl)ccc5c4OCO5)ncnc3c2)CC1 [saracatinib]
In short: as §1

[10] = compound: CN1CCN(c2nc(C3=C(c4c[nH]c5ccccc45)C(=O)NC3=O)c3ccccc3n2)CC1 [sotrastaurin]
In short: as §1

Measured: log2 fold change

KDELR2 (UniProt P33947)
inactive: [1] 0.133 | [2] 0.018 | [3] 0.036 | [4] 0.054 | [5] 0.079 | [6] -0.058 | [7] 0.278 | [8] -0.089 | [9] 0.029 | [10] 0.063

KBTBD8 (UniProt Q8NFY9)
inactive: [1] 0.042 | [2] 0.017 | [3] 0.091 | [4] -0.006 | [5] -0.015 | [6] -0.03 | [7] 0.133 | [8] -0.03 | [9] 0.008 | [10] 0.038

IRAK1 (UniProt P51617)
inactive: [1] 0.086 | [2] -0.033 | [3] -0.01 | [4] -0.089 | [5] -0.134 | [6] 0.041 | [7] -0.135 | [8] 0.043 | [9] -0.016 | [10] -0.029

ITFG2 (UniProt Q969R8)
inactive: [1] 0.154 | [2] 0.012 | [3] 0.031 | [4] -0.129 | [5] -0.043 | [6] -0.026 | [7] -0.021 | [8] 0.024 | [9] -0.001 | [10] 0.025

INTS7 (UniProt Q9NVH2)
inactive: [1] -0.059 | [2] -0.058 | [3] 0.335 | [4] -0.073 | [5] 0.013 | [6] 0.028 | [7] 0.027 | [8] 0.039 | [9] 0.005 | [10] -0.057

IPO11 isoform 2 (UniProt Q9UI26)
inactive: [1] 0.015 | [2] 0.013 | [3] -0.001 | [4] -0.031 | [5] -0.014 | [6] -0.012 | [7] 0.001 | [8] -0.009 | [9] -0.013 | [10] 0.024

ISG15 (UniProt P05161)
inactive: [1] 0.016 | [2] 0.009 | [3] 0.015 | [4] 0.028 | [5] -0.019 | [6] -0.08 | [7] -0.163 | [8] 0.043 | [9] -0.007 | [10] 0.028

INTS3 (UniProt Q68E01)
inactive: [1] 0.038 | [2] 0.02 | [3] 0.05 | [4] -0.029 | [5] -0.017 | [6] -0.083 | [7] 0.072 | [8] -0.018 | [9] 0.049 | [10] 0.015

KCT2 (UniProt Q8NC54)
active: [7] -0.374
inactive: [1] 0.046 | [2] 0.023 | [3] 0.127 | [4] 0.054 | [5] -0.001 | [6] -0.038 | [8] 0.153 | [9] 0.089 | [10] 0.038

ITGB1 (UniProt P05556)
inactive: [1] -0.011 | [2] 0.018 | [3] -0.005 | [4] 0.032 | [5] 0.021 | [6] -0.008 | [7] -0.004 | [8] 0.009 | [9] 0.01 | [10] 0.006

IQSEC2 (UniProt Q5JU85)
inactive: [1] 0.074 | [2] 0.022 | [3] 0.086 | [4] 0.057 | [5] -0.044 | [6] 0.033 | [7] 0.011 | [8] 0.063 | [9] 0.009 | [10] 0.068

JUND (UniProt P17535)
inactive: [1] 0.001 | [2] 0.038 | [3] 0.016 | [4] 0.131 | [5] 0.032 | [6] 0.048 | [7] -0.296 | [8] 0.172 | [9] 0.01 | [10] -0.013

INTS5 (UniProt Q6P9B9)
inactive: [1] 0.052 | [2] -0.167 | [3] 0.044 | [4] 0.042 | [5] 0.223 | [6] 0.023 | [7] 0.029 | [8] -0.072 | [9] 0.069 | [10] -0.092

KBTBD2 (UniProt Q8IY47)
inactive: [1] -0.035 | [2] 0.006 | [3] 0.022 | [4] -0.018 | [5] 0.013 | [6] -0.181 | [7] -0.166 | [8] 0.06 | [9] 0.031 | [10] -0.03

KDM1B (UniProt Q8NB78)
inactive: [1] -0.005 | [2] 0.029 | [3] 0.014 | [4] -0.091 | [5] -0.056 | [6] -0.03 | [7] 0.073 | [8] -0.042 | [9] 0.025 | [10] 0.018

IVNS1ABP (UniProt Q9Y6Y0)
inactive: [1] -0.016 | [2] 0.008 | [3] 0.088 | [4] -0.033 | [5] -0.058 | [6] 0.021 | [7] -0.01 | [8] 0.011 | [9] -0.011 | [10] 0.009

IQSEC1 (UniProt Q6DN90)
inactive: [1] 0.058 | [2] -0.11 | [3] 0.005 | [4] -0.035 | [5] -0.057 | [6] -0.017 | [7] 0.017 | [8] -0.031 | [9] 0 | [10] 0.021

Looked up one by one from the entries so far, 2 records:
KDM1B (UniProt Q8NB78)
inactive: [1] -0.005 | [2] 0.029 | [3] 0.014 | [4] -0.091 | [5] -0.056 | [6] -0.03 | [7] 0.073 | [8] -0.042 | [9] 0.025 | [10] 0.018

IVNS1ABP (UniProt Q9Y6Y0)
inactive: [1] -0.016 | [2] 0.008 | [3] 0.088 | [4] -0.033 | [5] -0.058 | [6] 0.021 | [7] -0.01 | [8] 0.011 | [9] -0.011 | [10] 0.009

Following part

ITSN2 (UniProt Q9NZM3)
inactive: [1] -0.035 | [2] -0.038 | [3] 0.048 | [4] 0.046 | [5] -0.072 | [6] -0.006 | [7] 0.041 | [8] -0.036 | [9] 0.046 | [10] -0.054

KATNBL1 (UniProt Q9H079)
inactive: [1] -0.011 | [2] -0.03 | [4] 0.284 | [5] 0.039 | [7] -0.105 | [8] 0.055 | [9] -0.068 | [10] -0.004

ISCU (UniProt Q9H1K1)
inactive: [1] -0.032 | [2] 0.016 | [3] 0.127 | [4] -0.002 | [5] 0.023 | [6] -0.059 | [7] 0.054 | [8] -0.023 | [9] -0.012 | [10] -0.014

KCTD20 (UniProt Q7Z5Y7)
inactive: [1] 0.17 | [2] 0.02 | [3] 0.052 | [4] 0.046 | [5] 0.007 | [6] -0.055 | [7] 0.018 | [8] -0.037 | [9] 0.048 | [10] 0.025

ITGA2B (UniProt P08514)
inactive: [1] 0.011 | [2] -0.08 | [5] 0.22 | [6] 0.021 | [7] -0.051 | [8] -0.013 | [10] -0.166

INTS6 (UniProt Q9UL03)
inactive: [1] -0.058 | [2] -0.097 | [3] 0.03 | [4] -0.261 | [5] 0.014 | [7] -0.077 | [8] 0.086 | [9] 0.107 | [10] -0.007

JTB (UniProt O76095)
inactive: [1] -0.324 | [2] -0.067 | [3] -0.045 | [4] 0.092 | [5] 0.062 | [6] 0.025 | [9] 0.022 | [10] 0.072

ITFG2 (UniProt H0YGR0)
inactive: [1] -0.009 | [2] -0.043 | [5] -0.076 | [6] -0.14 | [9] 0.181

ITPKC (UniProt Q96DU7)
inactive: [1] -0.06 | [3] 0.007 | [4] -0.025 | [6] 0.158 | [7] 0.02 | [8] 0.211 | [9] 0.059 | [10] -0.014

KDM3A (UniProt Q9Y4C1)
inactive: [1] 0.013 | [3] -0.007 | [4] 0.061 | [6] -0.022 | [7] 0.113 | [8] -0.093 | [9] 0.031 | [10] 0.036

JAK3 (UniProt P52333)
inactive: [1] -0.127 | [2] 0.014 | [3] 0.064 | [5] -0.062 | [7] 0.524 | [8] -0.488 | [10] 0.014
